Source: PubChem BioAssay AID1259308 (NCATS, 2017)

Test: 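Candidate targets for better recombinant protein yield in mammalian cells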 (primary screen)
System: human HEK293 embryonic kidney cells stably expressing firefly luciferase (HEK-CMV-Luc2-Hygro)
Reagents: single siRNA against human genes, 0.8 pmol siRNA per well
Time to read-out: 72 h
Measured: 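Luciferase light (ONE-Glo) measured on one replicate plate set and viability (CellTiter-Glo) on the other, scaled to a negative control siRNA, with robust z-scores and luciferase per cell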
Direction: total luciferase, z-score and total luciferase, % of control: higher = more reporter protein produced; luciferase per cell, z-score: higher = more reporter output per viable cell; viable cells, % of control: higher = more viable cells
Active means: 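Active when the median/MAD z-score for overall luciferase is greater than 3; a gene was taken forward for validation with new siRNAs if at least two of its three siRNAs passed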
Calls: active = raised luciferase; inactive = no rise
Shown is one part, drawn at random, of about 59,000 reagents tested. In the full data, about 1,510 (2.6%) got an active call. 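Calls use total luciferase alone and ignore viability, so some active siRNAs may act by altering cell number.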 Reagents against one gene are numbered here.

| gene | reagent no. | total luciferase, z-score | total luciferase, % of control | luciferase per cell, z-score | viable cells, % of control | outcome |
| --- | --- | --- | --- | --- | --- | --- |
| PLP2 (proteolipid protein 2) | 1 | 0.0975 | 83.8 | 0.161 | 89.8 | inactive |
| PLP2 (proteolipid protein 2) | 2 | 0.635 | 94.5 | 0.436 | 94.2 | inactive |
| PLP2 (proteolipid protein 2) | 3 | 0.231 | 86.5 | 0.108 | 93.9 | inactive |
| RPS16P1 (ribosomal protein S16 pseudogene 1) | 1 | -2.42 | 33.8 | -1.18 | 51.5 | inactive |
| RPS16P1 (ribosomal protein S16 pseudogene 1) | 2 | -1.78 | 46.6 | -1.9 | 85.9 | inactive |
| RPS16P1 (ribosomal protein S16 pseudogene 1) | 3 | -2.54 | 31.4 | -1.94 | 58.4 | inactive |
| FSIP1 (fibrous sheath interacting protein 1) | 1 | 0.738 | 96.6 | 0.233 | 102 | inactive |
| FSIP1 (fibrous sheath interacting protein 1) | 2 | 1.6 | 114 | 2.15 | 72.2 | inactive |
| FSIP1 (fibrous sheath interacting protein 1) | 3 | -0.0815 | 80.3 | -0.503 | 102 | inactive |
| OR52A5 (olfactory receptor family 52 subfamily A member 5) | 1 | 0.811 | 98 | 1.44 | 75 | inactive |
| OR52A5 (olfactory receptor family 52 subfamily A member 5) | 2 | -0.072 | 80.5 | -0.578 | 105 | inactive |
| OR52A5 (olfactory receptor family 52 subfamily A member 5) | 3 | 0.639 | 94.6 | 1.88 | 64.5 | inactive |
| PEX5L (peroxisomal biogenesis factor 5 like) | 1 | -0.412 | 73.7 | -0.312 | 89.4 | inactive |
| PEX5L (peroxisomal biogenesis factor 5 like) | 2 | 2.22 | 126 | 1.84 | 86.6 | inactive |
| PEX5L (peroxisomal biogenesis factor 5 like) | 3 | 0.344 | 88.7 | 0.0205 | 98.6 | inactive |
| HOMER1 (homer scaffold protein 1) | 1 | 2.48 | 131 | 1.73 | 92.9 | inactive |
| HOMER1 (homer scaffold protein 1) | 2 | -0.451 | 72.9 | -0.492 | 92.8 | inactive |
| HOMER1 (homer scaffold protein 1) | 3 | -0.227 | 77.4 | 0.656 | 72.7 | inactive |
| PMS1 (PMS1 homolog 1, mismatch repair system component) | 1 | -0.533 | 71.3 | -1.62 | 122 | inactive |
| PMS1 (PMS1 homolog 1, mismatch repair system component) | 2 | -1.01 | 61.8 | -0.877 | 86.9 | inactive |
| PMS1 (PMS1 homolog 1, mismatch repair system component) | 3 | 0.831 | 98.4 | 0.583 | 94.3 | inactive |
| SUMF1 (sulfatase modifying factor 1) | 1 | 0.315 | 88.2 | 0.686 | 82.2 | inactive |
| SUMF1 (sulfatase modifying factor 1) | 2 | 0.144 | 84.7 | -0.136 | 98.2 | inactive |
| SUMF1 (sulfatase modifying factor 1) | 3 | -2.6 | 30.2 | -3.86 | 93.3 | inactive |
| C9orf78 (chromosome 9 open reading frame 78) | 1 | -1.09 | 60.1 | -0.978 | 87 | inactive |
| C9orf78 (chromosome 9 open reading frame 78) | 2 | -0.153 | 78.9 | -0.579 | 103 | inactive |
| C9orf78 (chromosome 9 open reading frame 78) | 3 | 1.25 | 107 | 1.78 | 74.7 | inactive |
| GCSHP9 (GCSH pseudogene 9) | 1 | -0.505 | 71.8 | -0.743 | 97.6 | inactive |
| GCSHP9 (GCSH pseudogene 9) | 2 | -1.59 | 50.3 | -0.945 | 72 | inactive |
| GCSHP9 (GCSH pseudogene 9) | 3 | -0.726 | 67.5 | -0.616 | 88.7 | inactive |
| TMEM161BP1 (transmembrane protein 161B pseudogene 1) | 1 | 0.38 | 89.5 | 1.1 | 74.9 | inactive |
| TMEM161BP1 (transmembrane protein 161B pseudogene 1) | 2 | -0.545 | 71 | -0.286 | 85.6 | inactive |
| TMEM161BP1 (transmembrane protein 161B pseudogene 1) | 3 | 0.547 | 92.8 | 1.2 | 75.6 | inactive |
| BNC2 (basonuclin zinc finger protein 2) | 1 | 1.11 | 104 | 0.674 | 97.2 | inactive |
| BNC2 (basonuclin zinc finger protein 2) | 2 | -0.499 | 72 | -0.66 | 95.7 | inactive |
| BNC2 (basonuclin zinc finger protein 2) | 3 | 0.128 | 84.4 | -0.363 | 104 | inactive |
| SCGB1A1 (secretoglobin family 1A member 1) | 1 | -0.81 | 65.8 | -1.48 | 109 | inactive |
| SCGB1A1 (secretoglobin family 1A member 1) | 2 | -1.78 | 46.5 | -2.27 | 94.5 | inactive |
| SCGB1A1 (secretoglobin family 1A member 1) | 3 | 3.05 | 143 | 2.88 | 74.7 | active |
| C2CD2L (C2CD2 like) | 1 | 0.327 | 88.4 | 1.12 | 73.5 | inactive |
| C2CD2L (C2CD2 like) | 2 | 0.792 | 97.6 | 1.03 | 83.2 | inactive |
| C2CD2L (C2CD2 like) | 3 | 0.464 | 91.1 | 0.126 | 98.5 | inactive |
| CACNA1B (calcium voltage-gated channel subunit alpha1 B) | 1 | -0.733 | 67.3 | -0.72 | 90.9 | inactive |
| CACNA1B (calcium voltage-gated channel subunit alpha1 B) | 2 | 0.252 | 86.9 | 1 | 74.6 | inactive |
| CACNA1B (calcium voltage-gated channel subunit alpha1 B) | 3 | -0.25 | 76.9 | -0.482 | 97.6 | inactive |
| NIBAN2 (niban apoptosis regulator 2) | 1 | -0.826 | 65.4 | -1 | 95.2 | inactive |
| NIBAN2 (niban apoptosis regulator 2) | 2 | 3.15 | 145 | 1.74 | 102 | active |
| NIBAN2 (niban apoptosis regulator 2) | 3 | 0.0567 | 83 | -0.347 | 102 | inactive |
| MIR550A3HG (MIR550A3 host gene) | 1 | 0.739 | 96.6 | 0.922 | 84.7 | inactive |
| MIR550A3HG (MIR550A3 host gene) | 2 | 2.5 | 132 | 1.42 | 101 | inactive |
| MIR550A3HG (MIR550A3 host gene) | 3 | -0.202 | 77.9 | -1.2 | 119 | inactive |
| RIT2 (Ras like without CAAX 2) | 1 | 0.0988 | 83.9 | -0.446 | 105 | inactive |
| RIT2 (Ras like without CAAX 2) | 2 | -0.532 | 71.3 | -0.743 | 96.9 | inactive |
| RIT2 (Ras like without CAAX 2) | 3 | -0.87 | 64.6 | 0.366 | 65.5 | inactive |
| C1QTNF12 (C1q and TNF related 12) | 1 | -0.34 | 75.1 | 0.0303 | 83.3 | inactive |
| C1QTNF12 (C1q and TNF related 12) | 2 | 3.58 | 153 | 2.33 | 92.6 | active |
| C1QTNF12 (C1q and TNF related 12) | 3 | -1 | 61.9 | -0.979 | 89.6 | inactive |
| INTS4 (integrator complex subunit 4) | 1 | -0.441 | 73.1 | 0.46 | 72.4 | inactive |
| INTS4 (integrator complex subunit 4) | 2 | 2.65 | 135 | 2.3 | 82.1 | inactive |
| INTS4 (integrator complex subunit 4) | 3 | 2.26 | 127 | 1.97 | 84.4 | inactive |
| RANGRF (RAN guanine nucleotide release factor) | 1 | 0.387 | 89.6 | 0.154 | 96.1 | inactive |
| RANGRF (RAN guanine nucleotide release factor) | 2 | 0.732 | 96.5 | 1.3 | 76.5 | inactive |
| RANGRF (RAN guanine nucleotide release factor) | 3 | 0.594 | 93.7 | 0.162 | 100 | inactive |
| RAP1GAP2 (RAP1 GTPase activating protein 2) | 1 | -0.0176 | 81.5 | -0.571 | 106 | inactive |
| RAP1GAP2 (RAP1 GTPase activating protein 2) | 2 | 2.19 | 125 | 1.7 | 89.6 | inactive |
| RAP1GAP2 (RAP1 GTPase activating protein 2) | 3 | -0.163 | 78.6 | -0.229 | 93.3 | inactive |
| ZNF771 (zinc finger protein 771) | 1 | 0.854 | 98.9 | 0.668 | 92.7 | inactive |
| ZNF771 (zinc finger protein 771) | 2 | -2.81 | 26 | -4.02 | 83.8 | inactive |
| ZNF771 (zinc finger protein 771) | 3 | 0.95 | 101 | 0.658 | 94.7 | inactive |
| SFTA2 (surfactant associated 2) | 1 | 1.4 | 110 | 0.703 | 102 | inactive |
| SFTA2 (surfactant associated 2) | 2 | -0.299 | 75.9 | -0.577 | 98.8 | inactive |
| SFTA2 (surfactant associated 2) | 3 | 0.116 | 84.2 | 1.02 | 71.9 | inactive |
| HAND2 (heart and neural crest derivatives expressed 2) | 1 | -0.503 | 71.9 | -0.592 | 93.9 | inactive |
| HAND2 (heart and neural crest derivatives expressed 2) | 2 | -0.972 | 62.6 | -1.01 | 91.2 | inactive |
| HAND2 (heart and neural crest derivatives expressed 2) | 3 | 0.223 | 86.3 | -0.00222 | 96.5 | inactive |

Records above whose gene name starts with N or n:
| gene | reagent no. | total luciferase, z-score | total luciferase, % of control | luciferase per cell, z-score | viable cells, % of control | outcome |
| --- | --- | --- | --- | --- | --- | --- |
| NIBAN2 (niban apoptosis regulator 2) | 1 | -0.826 | 65.4 | -1 | 95.2 | inactive |
| NIBAN2 (niban apoptosis regulator 2) | 2 | 3.15 | 145 | 1.74 | 102 | active |
| NIBAN2 (niban apoptosis regulator 2) | 3 | 0.0567 | 83 | -0.347 | 102 | inactive |
